Results from patent US20060079568A1, “Inhibition of atherosclerosis by diindolylmethane analogs” (The Texas A&M University System, priority 2004, published 2006).
At least one structure is not confirmed: it was looked up by name or label, or the drawing left a doubt.

Experiments:
HUVECs = assay: Treatment of unstimulated HUVECs: apoptosis and baseline ICAM-1 expression; details: up to 10 μmol/L, HUVECs without TNF-α (data not shown)
IL-6 = IL-6 production in supernatants of TNF-α-stimulated HUVECs, ELISA; assay type: cell-based, human; details: 10 μmol/L pretreatment, 5 ng/ml TNF-α, listed as Ciglitazone
Method: (§1) In order to measure chemokine levels in the cell supernatant, HUVECs cultured in 24-well plates were preincubated for 6 hours with one of the three p-substituted phenyl DIM analogs at the concentrations indicated or with vehicle and then stimulated with 5 ng/ml TNF-α. For comparison, HUVECs were also preincubated with ciglitazone or 15d-PGJ2 at the same concentrations and then stimulated with TNF-α at a concentration of 5 ng/ml. Cell culture supernatants were collected 6 and 24 hours after the stimulation for analysis of IL-6 and MCP-1, respectively.
(§2) The levels of IL-6 and MCP-1 were quantified using commercial ELISA kits (BioSource International, Camarillo, Calif.) according to the manufacturer's directions. The minimum detectable concentration of the assay was 2 pg/ml for IL-6 and <20 pg/ml for MCP-1. All experiments were performed in triplicate.
(§3) To determine the effects of the three p-substituted phenyl DIM analogs on TNF-α-induced chemokine production in HUVECs, cells were pretreated for 6 hours with one of the three analogs at the concentrations indicated or with vehicle and then stimulated with 5 ng/ml TNF-α for the indicated time before the chemokine assays were performed.

PPAR-γ = biological target: T1, PPAR-γ (Homo sapiens, UniProt P37231); details: earlier structure-activity studies [5]; cited from earlier work
T1 sequence (P37231 1-505): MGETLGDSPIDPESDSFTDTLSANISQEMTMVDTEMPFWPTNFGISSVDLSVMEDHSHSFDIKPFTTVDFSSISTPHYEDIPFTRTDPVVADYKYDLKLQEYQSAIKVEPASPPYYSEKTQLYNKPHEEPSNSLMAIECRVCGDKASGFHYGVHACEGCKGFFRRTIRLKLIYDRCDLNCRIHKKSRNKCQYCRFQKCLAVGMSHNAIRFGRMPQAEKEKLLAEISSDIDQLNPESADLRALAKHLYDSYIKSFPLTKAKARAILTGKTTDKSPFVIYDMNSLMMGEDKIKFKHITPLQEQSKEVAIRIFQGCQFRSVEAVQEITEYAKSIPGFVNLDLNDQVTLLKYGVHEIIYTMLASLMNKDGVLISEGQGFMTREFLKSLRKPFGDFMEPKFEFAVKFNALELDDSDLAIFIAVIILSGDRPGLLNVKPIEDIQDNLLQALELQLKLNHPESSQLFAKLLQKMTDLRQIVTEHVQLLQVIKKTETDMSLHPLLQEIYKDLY

MCP-1 = MCP-1 production in supernatants of TNF-α-stimulated HUVECs, ELISA; assay type: cell-based, human; details: 10 μmol/L pretreatment, 5 ng/ml TNF-α, listed as Ciglitazone
Method: as §1, §2, §3

[1] = tested on: macrophage homing to atherosclerotic plaques; details: short-term treatment, ref [23]; cited from earlier work

Structure (SMILES) | change of baseline expression of ICAM-1 (HUVECs) | effect on TNF-α-induced IL-6 production (in words) (IL-6) | PPAR-γ agonist activity (PPAR-γ) | effect on TNF-α-induced MCP-1 production (in words) (MCP-1) | macrophage homing to atherosclerotic plaques [1]
CC1(COc2ccc(CC3SC(=O)NC3=O)cc2)CCCCC1 (centres unmarked) [ciglitazone, reference compound] | did not induce apoptosis or change the baseline expression of ICAM-1 | did not decrease | low PPAR-γ agonist activity | did not decrease | –
Cc1c(C)c2c(c(C)c1O)CCC(C)(COc1ccc(CC3SC(=O)NC3=O)cc1)O2 (centres unmarked) [troglitazone] | – | – | – | – | significantly inhibited
